PMC8279952
No constants are given. Whether binding was seen depends on the method and setting. In cells and extracts the contact can be indirect. Here binding means that the protein was enriched with, or labelled near, the bait; the list need not be complete. Tags and fused reporters may be left off the sequences shown.

Protein sequences, listed by entry. Tags and fused reporters are not part of them.
UniProt P37913: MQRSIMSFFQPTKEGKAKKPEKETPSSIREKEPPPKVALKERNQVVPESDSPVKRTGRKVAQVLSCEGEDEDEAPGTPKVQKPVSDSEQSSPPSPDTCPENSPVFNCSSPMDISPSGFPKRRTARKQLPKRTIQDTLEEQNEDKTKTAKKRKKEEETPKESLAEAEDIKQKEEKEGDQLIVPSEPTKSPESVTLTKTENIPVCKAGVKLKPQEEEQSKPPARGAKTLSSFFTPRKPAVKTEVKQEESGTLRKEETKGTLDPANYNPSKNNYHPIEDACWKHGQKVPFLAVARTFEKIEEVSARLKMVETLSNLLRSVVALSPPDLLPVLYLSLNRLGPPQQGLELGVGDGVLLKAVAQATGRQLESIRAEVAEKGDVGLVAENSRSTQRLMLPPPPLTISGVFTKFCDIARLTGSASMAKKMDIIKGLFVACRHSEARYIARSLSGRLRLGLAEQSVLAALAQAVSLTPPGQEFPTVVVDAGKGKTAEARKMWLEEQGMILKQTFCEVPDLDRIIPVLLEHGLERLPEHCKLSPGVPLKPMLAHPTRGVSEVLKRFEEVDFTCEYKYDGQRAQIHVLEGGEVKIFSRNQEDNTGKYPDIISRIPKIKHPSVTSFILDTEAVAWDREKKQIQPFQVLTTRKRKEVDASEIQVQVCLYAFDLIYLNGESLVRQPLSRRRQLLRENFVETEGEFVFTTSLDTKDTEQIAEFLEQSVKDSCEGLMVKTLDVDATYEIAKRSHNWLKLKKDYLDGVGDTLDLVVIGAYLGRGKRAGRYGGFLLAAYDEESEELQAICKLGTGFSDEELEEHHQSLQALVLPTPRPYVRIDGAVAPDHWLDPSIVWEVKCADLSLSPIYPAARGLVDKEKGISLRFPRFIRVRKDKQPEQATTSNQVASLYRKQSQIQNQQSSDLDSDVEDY

Target: T1, Uhrf1-3xFLAG (endogenously tagged E3 ubiquitin protein ligase Uhrf1) (mouse (endogenous in mouse ESCs)) (UniProt Q8VDF2)
T1 sequence: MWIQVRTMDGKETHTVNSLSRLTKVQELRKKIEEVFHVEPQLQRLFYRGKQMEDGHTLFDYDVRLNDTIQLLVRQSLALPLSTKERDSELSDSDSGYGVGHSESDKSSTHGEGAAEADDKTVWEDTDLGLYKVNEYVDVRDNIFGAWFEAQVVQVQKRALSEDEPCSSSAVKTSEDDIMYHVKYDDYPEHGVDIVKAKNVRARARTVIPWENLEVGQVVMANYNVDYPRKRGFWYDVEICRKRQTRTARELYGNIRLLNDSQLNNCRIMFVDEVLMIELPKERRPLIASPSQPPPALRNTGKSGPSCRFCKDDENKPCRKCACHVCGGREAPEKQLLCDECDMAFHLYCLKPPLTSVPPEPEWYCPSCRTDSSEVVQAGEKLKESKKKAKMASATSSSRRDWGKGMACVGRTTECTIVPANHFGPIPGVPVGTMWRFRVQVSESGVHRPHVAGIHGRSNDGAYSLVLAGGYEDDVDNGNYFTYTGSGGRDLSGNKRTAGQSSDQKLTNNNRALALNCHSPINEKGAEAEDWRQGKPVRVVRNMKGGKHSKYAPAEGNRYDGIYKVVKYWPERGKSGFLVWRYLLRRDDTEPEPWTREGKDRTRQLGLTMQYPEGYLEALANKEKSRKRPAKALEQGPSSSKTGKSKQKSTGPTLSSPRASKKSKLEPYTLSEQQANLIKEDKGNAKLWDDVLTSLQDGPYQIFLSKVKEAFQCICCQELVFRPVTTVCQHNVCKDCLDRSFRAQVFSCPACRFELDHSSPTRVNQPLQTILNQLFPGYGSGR
Test: affinity purification with mass spectrometry; rapid immunoprecipitation MS; 50 million DKO0 or TKOL Uhrf1-FLAG ESCs crosslinked with 1% formaldehyde for 8 min, sonicated; anti-Flag antibody on protein G beads overnight; 10 washes with RIPA buffer (0.5 M LiCl); compared with untagged control; three biological replicates

Question: For Lig1 (from UniProt P37913 1-916), which binding is on record?
Answer: The binding was “binds”.
